Source: doi:10.1101/2024.09.30.615666

The chains behind the UniProt entries cited, without tags or fusion partners.
UniProt P12270: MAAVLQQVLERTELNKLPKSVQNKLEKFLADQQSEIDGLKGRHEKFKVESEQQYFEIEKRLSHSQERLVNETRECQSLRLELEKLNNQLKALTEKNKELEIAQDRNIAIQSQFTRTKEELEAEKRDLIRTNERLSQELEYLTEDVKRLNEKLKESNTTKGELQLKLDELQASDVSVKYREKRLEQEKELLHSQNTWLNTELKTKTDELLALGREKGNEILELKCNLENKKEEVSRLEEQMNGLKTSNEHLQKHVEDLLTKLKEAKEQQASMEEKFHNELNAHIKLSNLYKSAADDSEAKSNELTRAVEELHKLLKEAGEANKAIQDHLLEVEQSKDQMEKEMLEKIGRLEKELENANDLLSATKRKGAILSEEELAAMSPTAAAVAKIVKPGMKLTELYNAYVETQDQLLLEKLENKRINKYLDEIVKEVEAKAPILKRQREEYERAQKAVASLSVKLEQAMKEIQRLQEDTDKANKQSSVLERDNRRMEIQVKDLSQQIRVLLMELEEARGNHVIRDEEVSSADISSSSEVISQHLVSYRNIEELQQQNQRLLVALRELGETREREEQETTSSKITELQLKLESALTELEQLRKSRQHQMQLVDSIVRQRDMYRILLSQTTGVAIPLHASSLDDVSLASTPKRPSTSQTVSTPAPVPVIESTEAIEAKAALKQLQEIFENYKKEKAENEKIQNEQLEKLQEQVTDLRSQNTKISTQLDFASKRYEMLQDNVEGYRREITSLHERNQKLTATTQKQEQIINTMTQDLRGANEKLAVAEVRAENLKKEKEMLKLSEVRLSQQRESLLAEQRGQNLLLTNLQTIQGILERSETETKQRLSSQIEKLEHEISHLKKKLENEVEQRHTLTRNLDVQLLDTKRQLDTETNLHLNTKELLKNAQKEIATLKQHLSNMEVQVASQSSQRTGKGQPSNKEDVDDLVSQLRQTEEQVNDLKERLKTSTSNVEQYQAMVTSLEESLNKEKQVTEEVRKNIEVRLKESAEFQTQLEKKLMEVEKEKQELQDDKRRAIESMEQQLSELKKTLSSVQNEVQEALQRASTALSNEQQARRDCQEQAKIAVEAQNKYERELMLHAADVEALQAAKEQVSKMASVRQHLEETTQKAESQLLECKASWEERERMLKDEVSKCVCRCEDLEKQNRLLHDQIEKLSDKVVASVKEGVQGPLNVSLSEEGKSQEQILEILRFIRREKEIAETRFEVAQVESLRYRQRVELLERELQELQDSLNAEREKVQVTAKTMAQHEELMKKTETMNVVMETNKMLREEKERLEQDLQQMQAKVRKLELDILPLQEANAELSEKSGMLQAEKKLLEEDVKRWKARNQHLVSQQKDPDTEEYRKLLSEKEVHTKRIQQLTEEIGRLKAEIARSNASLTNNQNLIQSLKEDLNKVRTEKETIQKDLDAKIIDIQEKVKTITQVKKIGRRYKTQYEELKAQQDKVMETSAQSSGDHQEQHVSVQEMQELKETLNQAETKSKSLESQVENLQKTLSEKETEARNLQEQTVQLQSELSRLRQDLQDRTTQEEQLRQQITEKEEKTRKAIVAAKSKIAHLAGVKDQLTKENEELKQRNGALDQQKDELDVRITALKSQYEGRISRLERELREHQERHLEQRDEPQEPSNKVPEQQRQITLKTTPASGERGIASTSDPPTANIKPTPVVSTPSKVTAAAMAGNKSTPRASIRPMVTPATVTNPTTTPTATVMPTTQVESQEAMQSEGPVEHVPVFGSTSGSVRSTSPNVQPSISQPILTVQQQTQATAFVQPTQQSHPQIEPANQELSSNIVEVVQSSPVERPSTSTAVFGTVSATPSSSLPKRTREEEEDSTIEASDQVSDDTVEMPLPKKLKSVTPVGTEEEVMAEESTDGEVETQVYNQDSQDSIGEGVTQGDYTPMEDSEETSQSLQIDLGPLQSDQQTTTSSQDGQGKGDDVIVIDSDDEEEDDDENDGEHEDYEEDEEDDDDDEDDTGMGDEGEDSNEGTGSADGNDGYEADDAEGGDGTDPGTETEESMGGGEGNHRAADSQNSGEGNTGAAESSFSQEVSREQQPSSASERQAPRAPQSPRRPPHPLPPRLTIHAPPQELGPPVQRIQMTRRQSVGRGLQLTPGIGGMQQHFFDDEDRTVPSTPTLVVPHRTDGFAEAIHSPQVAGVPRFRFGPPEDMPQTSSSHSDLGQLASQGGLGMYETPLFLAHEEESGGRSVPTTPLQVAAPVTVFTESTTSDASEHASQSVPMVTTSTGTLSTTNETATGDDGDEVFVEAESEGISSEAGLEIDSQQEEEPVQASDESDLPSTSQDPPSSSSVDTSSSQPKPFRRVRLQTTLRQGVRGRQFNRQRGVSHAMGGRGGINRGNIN
UniProt P49790: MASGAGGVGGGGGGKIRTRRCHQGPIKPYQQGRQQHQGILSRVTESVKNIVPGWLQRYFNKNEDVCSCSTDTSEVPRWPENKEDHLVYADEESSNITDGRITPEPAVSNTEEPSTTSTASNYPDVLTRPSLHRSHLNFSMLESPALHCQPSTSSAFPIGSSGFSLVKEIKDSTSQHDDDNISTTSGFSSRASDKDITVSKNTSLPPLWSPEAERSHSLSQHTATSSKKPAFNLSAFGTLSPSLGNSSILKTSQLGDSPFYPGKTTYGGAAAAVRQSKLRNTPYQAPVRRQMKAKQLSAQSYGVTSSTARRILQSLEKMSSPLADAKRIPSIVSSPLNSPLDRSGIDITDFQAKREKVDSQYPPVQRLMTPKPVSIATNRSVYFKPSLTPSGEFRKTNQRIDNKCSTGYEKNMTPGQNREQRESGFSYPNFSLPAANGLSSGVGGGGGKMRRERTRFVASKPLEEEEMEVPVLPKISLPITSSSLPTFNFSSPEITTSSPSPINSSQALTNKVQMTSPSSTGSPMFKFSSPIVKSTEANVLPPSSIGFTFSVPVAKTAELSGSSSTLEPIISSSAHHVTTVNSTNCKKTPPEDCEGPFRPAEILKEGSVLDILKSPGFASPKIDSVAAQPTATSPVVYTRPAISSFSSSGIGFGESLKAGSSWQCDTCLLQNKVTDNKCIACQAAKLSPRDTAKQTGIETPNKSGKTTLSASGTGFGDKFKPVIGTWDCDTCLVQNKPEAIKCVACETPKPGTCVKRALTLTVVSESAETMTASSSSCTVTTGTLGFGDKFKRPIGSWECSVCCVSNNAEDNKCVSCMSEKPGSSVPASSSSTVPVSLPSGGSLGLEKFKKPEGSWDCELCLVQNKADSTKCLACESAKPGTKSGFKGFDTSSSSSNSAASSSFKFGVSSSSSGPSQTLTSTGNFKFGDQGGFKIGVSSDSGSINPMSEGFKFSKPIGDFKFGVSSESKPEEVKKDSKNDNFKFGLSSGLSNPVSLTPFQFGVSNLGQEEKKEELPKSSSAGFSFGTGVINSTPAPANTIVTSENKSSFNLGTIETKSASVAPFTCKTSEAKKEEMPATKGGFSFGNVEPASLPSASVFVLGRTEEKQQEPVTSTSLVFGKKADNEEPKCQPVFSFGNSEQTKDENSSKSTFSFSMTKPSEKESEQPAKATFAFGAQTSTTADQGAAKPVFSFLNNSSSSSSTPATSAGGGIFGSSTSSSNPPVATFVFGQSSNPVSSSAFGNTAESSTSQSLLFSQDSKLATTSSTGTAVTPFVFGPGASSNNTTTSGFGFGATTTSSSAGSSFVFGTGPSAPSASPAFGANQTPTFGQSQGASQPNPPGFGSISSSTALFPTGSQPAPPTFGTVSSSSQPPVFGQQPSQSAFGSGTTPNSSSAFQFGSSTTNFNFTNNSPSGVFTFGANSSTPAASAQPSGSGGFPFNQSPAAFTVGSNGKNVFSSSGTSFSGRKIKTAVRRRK
UniProt Q8TEQ6: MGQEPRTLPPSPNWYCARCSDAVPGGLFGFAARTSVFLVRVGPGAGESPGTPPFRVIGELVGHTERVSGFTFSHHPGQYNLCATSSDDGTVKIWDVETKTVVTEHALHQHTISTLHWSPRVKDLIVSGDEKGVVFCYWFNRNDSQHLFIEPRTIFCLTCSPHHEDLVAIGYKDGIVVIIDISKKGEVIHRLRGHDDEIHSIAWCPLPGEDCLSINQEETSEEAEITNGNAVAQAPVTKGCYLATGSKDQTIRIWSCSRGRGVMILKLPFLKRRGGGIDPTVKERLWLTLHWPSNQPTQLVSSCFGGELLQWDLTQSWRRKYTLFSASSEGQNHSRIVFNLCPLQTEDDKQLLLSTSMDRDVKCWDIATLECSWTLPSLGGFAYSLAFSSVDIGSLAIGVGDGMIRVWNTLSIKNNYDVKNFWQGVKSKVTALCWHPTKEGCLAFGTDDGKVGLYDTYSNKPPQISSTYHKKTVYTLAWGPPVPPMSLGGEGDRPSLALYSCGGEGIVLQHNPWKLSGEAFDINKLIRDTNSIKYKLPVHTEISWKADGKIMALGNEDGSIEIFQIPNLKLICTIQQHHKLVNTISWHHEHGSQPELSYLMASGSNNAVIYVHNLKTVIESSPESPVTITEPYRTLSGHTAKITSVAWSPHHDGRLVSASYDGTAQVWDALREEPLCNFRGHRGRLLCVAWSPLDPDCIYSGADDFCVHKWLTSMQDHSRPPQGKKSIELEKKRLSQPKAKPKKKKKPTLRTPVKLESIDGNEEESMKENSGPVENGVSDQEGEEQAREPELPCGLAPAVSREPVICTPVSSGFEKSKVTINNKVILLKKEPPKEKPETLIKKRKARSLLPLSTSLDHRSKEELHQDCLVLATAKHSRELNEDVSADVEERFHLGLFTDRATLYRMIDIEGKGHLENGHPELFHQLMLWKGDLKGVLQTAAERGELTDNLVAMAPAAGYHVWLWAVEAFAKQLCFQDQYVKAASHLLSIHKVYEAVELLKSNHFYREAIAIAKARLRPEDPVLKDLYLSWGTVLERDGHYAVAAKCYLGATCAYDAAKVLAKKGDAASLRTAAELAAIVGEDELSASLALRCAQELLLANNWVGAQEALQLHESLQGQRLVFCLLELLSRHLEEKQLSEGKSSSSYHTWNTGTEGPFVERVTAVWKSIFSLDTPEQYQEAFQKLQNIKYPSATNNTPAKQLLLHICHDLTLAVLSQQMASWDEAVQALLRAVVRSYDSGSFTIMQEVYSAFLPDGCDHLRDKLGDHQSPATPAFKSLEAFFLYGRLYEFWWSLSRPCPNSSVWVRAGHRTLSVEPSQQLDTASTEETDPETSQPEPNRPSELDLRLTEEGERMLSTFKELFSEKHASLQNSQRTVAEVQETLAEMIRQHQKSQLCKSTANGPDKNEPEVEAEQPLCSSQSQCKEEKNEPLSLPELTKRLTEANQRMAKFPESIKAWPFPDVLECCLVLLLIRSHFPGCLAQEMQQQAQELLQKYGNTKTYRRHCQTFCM
UniProt O00410: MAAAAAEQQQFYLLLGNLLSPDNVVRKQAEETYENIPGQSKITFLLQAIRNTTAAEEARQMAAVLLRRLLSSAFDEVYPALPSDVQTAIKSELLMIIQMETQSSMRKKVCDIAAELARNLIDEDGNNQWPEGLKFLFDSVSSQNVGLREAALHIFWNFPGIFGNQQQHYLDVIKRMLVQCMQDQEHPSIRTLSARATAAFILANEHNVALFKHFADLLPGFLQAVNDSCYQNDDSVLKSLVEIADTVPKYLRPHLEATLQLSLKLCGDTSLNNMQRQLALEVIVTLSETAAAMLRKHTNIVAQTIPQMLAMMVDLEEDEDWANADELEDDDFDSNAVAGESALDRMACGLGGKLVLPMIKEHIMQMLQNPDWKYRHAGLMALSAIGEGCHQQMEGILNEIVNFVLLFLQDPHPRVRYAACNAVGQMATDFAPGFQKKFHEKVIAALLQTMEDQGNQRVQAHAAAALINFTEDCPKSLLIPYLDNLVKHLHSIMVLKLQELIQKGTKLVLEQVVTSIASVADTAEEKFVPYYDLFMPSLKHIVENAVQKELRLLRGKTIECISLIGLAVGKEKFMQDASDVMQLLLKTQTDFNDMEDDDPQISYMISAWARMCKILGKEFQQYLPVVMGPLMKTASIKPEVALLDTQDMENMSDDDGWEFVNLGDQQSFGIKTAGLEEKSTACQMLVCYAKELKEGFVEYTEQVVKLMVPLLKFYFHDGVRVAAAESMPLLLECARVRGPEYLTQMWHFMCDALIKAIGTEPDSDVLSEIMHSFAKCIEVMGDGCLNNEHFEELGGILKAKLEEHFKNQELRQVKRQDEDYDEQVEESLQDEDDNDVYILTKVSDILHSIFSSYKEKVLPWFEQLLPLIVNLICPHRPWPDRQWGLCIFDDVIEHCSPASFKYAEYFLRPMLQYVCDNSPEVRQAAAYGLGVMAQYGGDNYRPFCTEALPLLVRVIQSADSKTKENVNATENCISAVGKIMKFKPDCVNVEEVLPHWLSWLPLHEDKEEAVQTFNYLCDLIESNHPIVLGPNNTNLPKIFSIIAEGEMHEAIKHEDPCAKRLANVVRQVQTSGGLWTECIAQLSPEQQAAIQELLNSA

Legend:
[1] = target: TPR-BiraA (UniProt P12270); assay: proximity labelling
[2] = target: Nup153-BirA (UniProt P49790); assay: proximity labelling

Q: Which binding [1] does the source give for CDK9 (from UniProt P50750 1-372) here?
A: binds

Q: What about the binding [2] of the same molecule?
A: binds

Q: For DDX39b (from UniProt Q13838 1-428), which binding [1] is on record?
A: binds

Q: And the binding [2]?
A: binds

Q: For FUS (from UniProt P35637 1-526), which binding [1] is on record?
A: binds

Q: What about the binding [2] of the same molecule?
A: binds

Q: GEMIN5 (from UniProt Q8TEQ6 1-1508) was tested. Which binding [1] did it give?
A: binds

Q: What about the binding [2] of the same molecule?
A: binds

Q: IPO5 (from UniProt O00410 1-1097) was tested. Which binding [1] did it give?
A: binds

Q: What about the binding [2] of the same molecule?
A: binds

Q: Which binding [1] does the source give for Med1 (from UniProt Q15648 1-1581) here?
A: binds

Q: What about the binding [2] of the same molecule?
A: binds

Q: How did the binding [1] turn out when PPIE (from UniProt Q9UNP9 1-301) was run?
A: binds

Q: What about the binding [2] of the same molecule?
A: binds

Q: For TADA3 (from UniProt O75528 1-432), which binding [1] is on record?
A: binds

Q: And the binding [2]?
A: binds

Q: How did the binding [1] turn out when TAF9b (from UniProt Q9HBM6 1-251) was run?
A: binds

Q: And the binding [2]?
A: binds

Q: How did the binding [1] turn out when TNPO1 (from UniProt Q92973 1-898) was run?
A: binds

Q: And the binding [2]?
A: binds

B1: Nup35 (protein, UniProt Q8NFH5 1-326)
chain: MAAFAVEPQGPALGSEPMMLGSPTSPKPGVNAQFLPGFLMGDLPAPVTPQPRSISGPSVGVMEMRSPLLAGGSPPQPVVPAHKDKSGAPPVRSIYDDISSPGLGSTPLTSRRQPNISVMQSPLVGVTSTPGTGQSMFSPASIGQPRKTTLSPAQLDPFYTQGDSLTSEDHLDDSWVTVFGFPQASASYILLQFAQYGNILKHVMSNTGNWMHIRYQSKLQARKALSKDGRIFGESIMIGVKPCIDKSVMESSDRCALSSPSLAFTPPIKTLGTPTQPGSTPRISTMRPLATAYKASTSDYQVISDRQTPKKDESLVSKAMEYMFGW
Q: How did the binding [1] turn out when B1 was run?
A: binds

Q: And the binding [2]?
A: binds

B2: AQR (protein, UniProt O60306 1-1485)
chain: MAAPAQPKKIVAPTVSQINAEFVTQLACKYWAPHIKKKSPFDIKVIEDIYEKEIVKSRFAIRKIMLLEFSQYLENYLWMNYSPEVSSKAYLMSICCMVNEKFRENVPAWEIFKKKPDHFPFFFKHILKAALAETDGEFSLHEQTVLLLFLDHCFNSLEVDLIRSQVQQLISLPMWMGLQLARLELELKKTPKLRKFWNLIKKNDEKMDPEAREQAYQERRFLSQLIQKFISVLKSVPLSEPVTMDKVHYCERFIELMIDLEALLPTRRWFNTILDDSHLLVHCYLSNLVRREEDGHLFSQLLDMLKFYTGFEINDQTGNALTENEMTTIHYDRITSLQRAAFAHFPELYDFALSNVAEVDTRESLVKFFGPLSSNTLHQVASYLCLLPTLPKNEDTTFDKEFLLELLVSRHERRISQIQQLNQMPLYPTEKIIWDENIVPTEYYSGEGCLALPKLNLQFLTLHDYLLRNFNLFRLESTYEIRQDIEDSVSRMKPWQSEYGGVVFGGWARMAQPIVAFTVVEVAKPNIGENWPTRVRADVTINLNVRDHIKDEWEGLRKHDVCFLITVRPTKPYGTKFDRRRPFIEQVGLVYVRGCEIQGMLDDKGRVIEDGPEPRPNLRGESRTFRVFLDPNQYQQDMTNTIQNGAEDVYETFNIIMRRKPKENNFKAVLETIRNLMNTDCVVPDWLHDIILGYGDPSSAHYSKMPNQIATLDFNDTFLSIEHLKASFPGHNVKVTVEDPALQIPPFRITFPVRSGKGKKRKDADVEDEDTEEAKTLIVEPHVIPNRGPYPYNQPKRNTIQFTHTQIEAIRAGMQPGLTMVVGPPGTGKTDVAVQIISNIYHNFPEQRTLIVTHSNQALNQLFEKIMALDIDERHLLRLGHGEEELETEKDFSRYGRVNYVLARRIELLEEVKRLQKSLGVPGDASYTCETAGYFFLYQVMSRWEEYISKVKNKGSTLPDVTEVSTFFPFHEYFANAPQPIFKGRSYEEDMEIAEGCFRHIKKIFTQLEEFRASELLRSGLDRSKYLLVKEAKIIAMTCTHAALKRHDLVKLGFKYDNILMEEAAQILEIETFIPLLLQNPQDGFSRLKRWIMIGDHHQLPPVIKNMAFQKYSNMEQSLFTRFVRVGVPTVDLDAQGRARASLCNLYNWRYKNLGNLPHVQLLPEFSTANAGLLYDFQLINVEDFQGVGESEPNPYFYQNLGEAEYVVALFMYMCLLGYPADKISILTTYNGQKHLIRDIINRRCGNNPLIGRPNKVTTVDRFQGQQNDYILLSLVRTRAVGHLRDVRRLVVAMSRARLGLYIFARVSLFQNCFELTPAFSQLTARPLHLHIIPTEPFPTTRKNGERPSHEVQIIKNMPQMANFVYNMYMHLIQTTHHYHQTLLQLPPAMVEEGEEVQNQETELETEEEAMTVQADIIPSPTDTSCRQETPAFQTDTTPSETGATSTPEAIPALSETTPTVVGAVSAPAEANTPQDATSAPEETK
Q: Which results are given for B2?
A: binding [1]: binds; binding [2]: binds

B3: DDX42 (protein, UniProt Q86XP3 1-938)
chain: MNWNKGGPGTKRGFGFGGFAISAGKKEEPKLPQQSHSAFGATSSSSGFGKSAPPQLPSFYKIGSKRANFDEENAYFEDEEEDSSNVDLPYIPAENSPTRQQFHSKPVDSDSDDDPLEAFMAEVEDQAARDMKRLEEKDKERKNVKGIRDDIEEEDDQEAYFRYMAENPTAGVVQEEEEDNLEYDSDGNPIAPTKKIIDPLPPIDHSEIDYPPFEKNFYNEHEEITNLTPQQLIDLRHKLNLRVSGAAPPRPGSSFAHFGFDEQLMHQIRKSEYTQPTPIQCQGVPVALSGRDMIGIAKTGSGKTAAFIWPMLIHIMDQKELEPGDGPIAVIVCPTRELCQQIHAECKRFGKAYNLRSVAVYGGGSMWEQAKALQEGAEIVVCTPGRLIDHVKKKATNLQRVSYLVFDEADRMFDMGFEYQVRSIASHVRPDRQTLLFSATFRKKIEKLARDILIDPIRVVQGDIGEANEDVTQIVEILHSGPSKWNWLTRRLVEFTSSGSVLLFVTKKANAEELANNLKQEGHNLGLLHGDMDQSERNKVISDFKKKDIPVLVATDVAARGLDIPSIKTVINYDVARDIDTHTHRIGRTGRAGEKGVAYTLLTPKDSNFAGDLVRNLEGANQHVSKELLDLAMQNAWFRKSRFKGGKGKKLNIGGGGLGYRERPGLGSENMDRGNNNVMSNYEAYKPSTGAMGDRLTAMKAAFQSQYKSHFVAASLSNQKAGSSAAGASGWTSAGSLNSVPTNSAQQGHNSPDSPVTSAAKGIPGFGNTGNISGAPVTYPSAGAQGVNNTASGNNSREGTGGSNGKRERYTENRGSSRHSHGETGNRHSDSPRHGDGGRHGDGYRHPESSSRHTDGHRHGENRHGGSAGRHGENRGANDGRNGESRKEAFNRESKMEPKMEPKVDSSKMDKVDSKTDKTADGFAVPEPPKRKKSRWDS
Q: For B3, which binding [1] is on record?
A: binds

Q: What about the binding [2] of the same molecule?
A: binds

B4: GPKOW (protein, UniProt Q92917 1-476)
chain: MADSKEGVLPLTAASTAPISFGFTRTSARRRLADSGDGAGPSPEEKDFLKTVEGRELQSVKPQEAPKELVIPLIQNGHRRQPPARPPGPSTDTGALADGVVSQAVKELIAESKKSLEERENAGVDPTLAIPMIQKGCTPSGEGADSEPRAETVPEEANYEAVPVEAYGLAMLRGMGWKPGEGIGRTFNQVVKPRVNSLRPKGLGLGANLTEAQALTPTGPSRMPRPDEEQEKDKEDQPQGLVPGGAVVVLSGPHRGLYGKVEGLDPDNVRAMVRLAVGSRVVTVSEYYLRPVSQQEFDKNTLDLRQQNGTASSRKTLWNQELYIQQDNSERKRKHLPDRQDGPAAKSEKAAPRSQHWLHRDLRVRFVDNMYKGGQYYNTKMIIEDVLSPDTCVCRTDEGRVLEGLREDMLETLVPKAEGDRVMVVLGPQTGRVGHLLSRDRARSRALVQLPRENQVVELHYDAICQYMGPSDTDDD
Q: B4 was tested. Which binding [1] did it give?
A: binds

Q: What about the binding [2] of the same molecule?
A: binds

B5: XAB2 (protein, UniProt Q9HCS7 1-855)
chain: MVVMARLSRPERPDLVFEEEDLPYEEEIMRNQFSVKCWLRYIEFKQGAPKPRLNQLYERALKLLPCSYKLWYRYLKARRAQVKHRCVTDPAYEDVNNCHERAFVFMHKMPRLWLDYCQFLMDQGRVTHTRRTFDRALRALPITQHSRIWPLYLRFLRSHPLPETAVRGYRRFLKLSPESAEEYIEYLKSSDRLDEAAQRLATVVNDERFVSKAGKSNYQLWHELCDLISQNPDKVQSLNVDAIIRGGLTRFTDQLGKLWCSLADYYIRSGHFEKARDVYEEAIRTVMTVRDFTQVFDSYAQFEESMIAAKMETASELGREEEDDVDLELRLARFEQLISRRPLLLNSVLLRQNPHHVHEWHKRVALHQGRPREIINTYTEAVQTVDPFKATGKPHTLWVAFAKFYEDNGQLDDARVILEKATKVNFKQVDDLASVWCQCGELELRHENYDEALRLLRKATALPARRAEYFDGSEPVQNRVYKSLKVWSMLADLEESLGTFQSTKAVYDRILDLRIATPQIVINYAMFLEEHKYFEESFKAYERGISLFKWPNVSDIWSTYLTKFIARYGGRKLERARDLFEQALDGCPPKYAKTLYLLYAQLEEEWGLARHAMAVYERATRAVEPAQQYDMFNIYIKRAAEIYGVTHTRGIYQKAIEVLSDEHAREMCLRFADMECKLGEIDRARAIYSFCSQICDPRTTGAFWQTWKDFEVRHGNEDTIKEMLRIRRSVQATYNTQVNFMASQMLKVSGSATGTVSDLAPGQSGMDDMKLLEQRAEQLAAEAERDQPLRAQSKILFVRSDASREELAELAQQVNPEEIQLGEDEDEDEMDLEPNEVRLEQQSVPAAVFGSLKED
Q: For B5, which binding [1] is on record?
A: binds

Q: And the binding [2]?
A: binds

B6: ISY1 (protein, UniProt Q9ULR0 1-285)
chain: MARNAEKAMTALARFRQAQLEEGKVKERRPFLASECTELPKAEKWRRQIIGEISKKVAQIQNAGLGEFRIRDLNDEINKLLREKGHWEVRIKELGGPDYGKVGPKMLDHEGKEVPGNRGYKYFGAAKDLPGVRELFEKEPLPPPRKTRAELMKAIDFEYYGYLDEDDGVIVPLEQEYEKKLRAELVEKWKAEREARLARGEKEEEEEEEEEINIYAVTEEESDEEGSQEKGGDDSQQKFIAHVPVPSQQEIEEALVRRKKMELLQKYASETLQAQSEEARRLLGY
Q: B6 was tested. Which binding [1] did it give?
A: binds

Q: And the binding [2]?
A: binds

Results are given in words; binding and its absence hold for the method and conditions named. Binding seen in cells or lysates may run through a third protein. A yes stands for co-enrichment or nearness to the bait. Other partners may have been found.
